Data published in patent US20070010429A1, “Phospholipid formulations and uses thereof in lung disease detection and treatment” (The Hospital For Sick Children, priority 2005, published 2007).

Assay: Content of PC species in rat BALF during development (mass spectral analysis)
Conditions: for Content of PC in Fetal Rat BALF, % Total PC, Day 19: fetal day 19, N = 4 BALF samples; for Content of PC in Fetal Rat BALF, % Total PC, Day 22: fetal day 22, N = 4 BALF samples, *P ≦ 0.01; for proportion (fractional concentration) of total PC in BALF at birth: at/around birth

Row | Compound | Content of PC in Fetal Rat BALF, % Total PC, Day 19 | Content of PC in Fetal Rat BALF, % Total PC, Day 22 | proportion (fractional concentration) of total PC in BALF at birth (rat BALF) [%] | Content of PC in Fetal Rat BALF, % Total PC, Day 19 (listed as 16:0/16:0PC) [% Total PC] | fractional concentration in BALF after birth (rat BALF, after birth) [%]
1 | CCCCCCCC/C=C\CCCCCCCC(=O)O[C@H](COC(=O)CCCCCCCCCCCCCCC)COP(=O)([O-])OCC[N+](C)(C)C [16.0/18:1, Palmitoyloleoyl Phosphatidylcholine] | 24.5 +/− 0.9 % Total PC | 8.6 +/− 0.3* % Total PC | 9 | – | –
2 | CCCCCCCCCCCCCCCC(=O)OC[C@H](COP(=O)([O-])OCC[N+](C)(C)C)OC(=O)CCCCCCCCCCCCC [16:0/14:0, Palmitoylmyristoyl Phosphatidylcholine] | 9.0 +/− 0.4 % Total PC | 13.2 +/− 0.3* % Total PC | – | – | –
3 | CCCCCCCCCCCCCCCC(=O)OC[C@H](COP(=O)([O-])OCC[N+](C)(C)C)OC(=O)CCCCCCCCCCCCCCC [16:0/16:0, Dipalmitoyl Phosphatidylcholine, reference compound] | 22.9 +/− 0.4 % Total PC | 38.8 +/− 0.5* % Total PC | 40 | 23 | ~40
4 | Palmitoylpalmitoleoyl Phosphatidylcholine [16:0/16:1] | 14.1 +/− 0.5 % Total PC | 33.0 +/− 0.3* % Total PC | 33 | – | –
